Taken from: PubChem BioAssay AID493246 (Drosophila RNAi Screening Center, 2011)
The deposit covers about 21,000 reagents; below is a random part of those that have a named target and a result. Of all reagents, 429 (2%) were called active. 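Values are raw and not normalised between plates; calls rest on per-plate z-scores that were not deposited.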 A number with no mark means an inactive call. A plus sign joins genes that one reagent is predicted to hit. The record does not give: the amount of reagent, the time to read-out.

- Screen: 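Identify essential fly genes by loss of cell viability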 (primary screen)
- Cells: Drosophila Kc and S2R+ cells
- Knock-down reagent: long dsRNA against Drosophila genes
- Measurement: 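Cell number per well after knock-down, printed as raw plate values; calls were based on per-plate z-scores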
- Direction: Kc cell number and S2R+ cell number: higher = more cells remaining
- Call rule: 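Counted as a hit if cell number falls by a z-score of at least 3 within its plate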

What is on record for CG30010 [DRSC05193]?
Kc cell number, rep 1: 1.49e6; Kc cell number, rep 2: 1.57e6; S2R+ cell number, rep 1: 9.66e5; S2R+ cell number, rep 2: 1.09e6

What is on record for CG13144 [DRSC02241]?
Kc cell number, rep 1: 1.64e6; Kc cell number, rep 2: 1.61e6; S2R+ cell number, rep 1: 1.23e6; S2R+ cell number, rep 2: 1.43e6

With Ppat-Dpck [DRSC09744], what does the deposit list?
Kc cell number, rep 1: 1.62e6; Kc cell number, rep 2: 1.67e6; S2R+ cell number, rep 1: 1.15e6; S2R+ cell number, rep 2: 1.19e6

For Gyc32E (Guanylyl cyclase at 32E) [DRSC01154], what was measured?
Kc cell number, rep 1: 1.56e6; Kc cell number, rep 2: 1.51e6; S2R+ cell number, rep 1: 1.11e6; S2R+ cell number, rep 2: 1.45e6

With dpr16 (defective proboscis extension response 16) [DRSC12217], what was measured?
Kc cell number, rep 1: 1.60e6; Kc cell number, rep 2: 1.83e6; S2R+ cell number, rep 1: 1.26e6; S2R+ cell number, rep 2: 1.39e6

With CG15543 [DRSC15081], what does the deposit list?
Kc cell number, rep 1: 1.63e6; Kc cell number, rep 2: 1.67e6; S2R+ cell number, rep 1: 1.03e6; S2R+ cell number, rep 2: 1.21e6

With alpha-Est9 (alpha-Esterase-9) [DRSC12621], what was measured?
Kc cell number, rep 1: 1.47e6; Kc cell number, rep 2: 1.58e6; S2R+ cell number, rep 1: 1.23e6; S2R+ cell number, rep 2: 1.25e6

With EMC2B (ER membrane protein complex subunit 2B) [DRSC15506], what was measured?
Kc cell number, rep 1: 1.24e6; Kc cell number, rep 2: 1.27e6; S2R+ cell number, rep 1: 1.19e6; S2R+ cell number, rep 2: 1.34e6

With Bx (Beadex) [DRSC19350], what was measured?
Kc cell number, rep 1: 1.60e6; Kc cell number, rep 2: 1.66e6; S2R+ cell number, rep 1: 1.07e6; S2R+ cell number, rep 2: 1.14e6

Which result is listed for CG18754 [DRSC15387]?
Kc cell number, rep 1: 1.66e6; Kc cell number, rep 2: 1.80e6; S2R+ cell number, rep 1: 9.76e5; S2R+ cell number, rep 2: 1.17e6

For CG31777 [DRSC00201], how do the results read?
Kc cell number, rep 1: 1.59e6; Kc cell number, rep 2: 1.59e6; S2R+ cell number, rep 1: 1.05e6; S2R+ cell number, rep 2: 1.14e6

With CG5612 [DRSC15844], how do the results read?
Kc cell number, rep 1: 1.51e6; Kc cell number, rep 2: 1.62e6; S2R+ cell number, rep 1: 9.86e5; S2R+ cell number, rep 2: 1.14e6

How did the screen score l(2)gd1 (lethal (2) giant discs 1) [DRSC02773]?
Kc cell number, rep 1: 1.31e6; Kc cell number, rep 2: 1.37e6; S2R+ cell number, rep 1: 1.08e6; S2R+ cell number, rep 2: 1.17e6

What is on record for CG10205 [DRSC05979]?
Kc cell number, rep 1: 1.45e6; Kc cell number, rep 2: 1.54e6; S2R+ cell number, rep 1: 8.92e5; S2R+ cell number, rep 2: 1.02e6

What is on record for Rrp6 [DRSC16223]?
Kc cell number, rep 1: 1.17e6; Kc cell number, rep 2: 1.25e6; S2R+ cell number, rep 1: 7.77e5; S2R+ cell number, rep 2: 8.98e5

What is on record for CIA30 (Complex I intermediate-associated protein, 30 kDa) [DRSC16266]?
Kc cell number, rep 1: 5.69e5; S2R+ cell number, rep 1: 7.92e5

For wts (warts) [DRSC17096], what was measured?
Kc cell number, rep 1: 9.19e5 (active); Kc cell number, rep 2: 9.77e5; S2R+ cell number, rep 1: 4.40e5; S2R+ cell number, rep 2: 5.03e5

How did the screen score Zdhhc8 (Zinc finger DHHC-type containing 8) [DRSC18044]?
Kc cell number, rep 1: 1.50e6; Kc cell number, rep 2: 1.59e6; S2R+ cell number, rep 1: 8.91e5; S2R+ cell number, rep 2: 1.06e6

With Zdhhc8 (Zinc finger DHHC-type containing 8) [DRSC18122], what was measured?
Kc cell number, rep 1: 1.61e6; Kc cell number, rep 2: 1.61e6; S2R+ cell number, rep 1: 1.02e6; S2R+ cell number, rep 2: 1.12e6

With TwdlS (TweedleS) [DRSC14737], what does the deposit list?
Kc cell number, rep 1: 1.51e6; Kc cell number, rep 2: 1.59e6; S2R+ cell number, rep 1: 1.01e6; S2R+ cell number, rep 2: 1.16e6

What is on record for asRNA:CR42547 + CG15674 [DRSC04264]?
Kc cell number, rep 1: 1.52e6; Kc cell number, rep 2: 1.56e6; S2R+ cell number, rep 1: 1.24e6; S2R+ cell number, rep 2: 3.23e5

For CG10702 [DRSC02097], what does the deposit list?
Kc cell number, rep 1: 1.27e6; Kc cell number, rep 2: 1.34e6; S2R+ cell number, rep 1: 1.25e6; S2R+ cell number, rep 2: 1.23e6

For fmt (fiery mountain) [DRSC09717], what was measured?
Kc cell number, rep 1: 1.32e6; Kc cell number, rep 2: 1.49e6; S2R+ cell number, rep 1: 1.11e6; S2R+ cell number, rep 2: 1.01e6

How did the screen score ACXD (Adenylyl cyclase X D) [DRSC07843]?
Kc cell number, rep 1: 1.49e6; Kc cell number, rep 2: 1.32e6; S2R+ cell number, rep 1: 9.06e5; S2R+ cell number, rep 2: 1.11e6

Which result is listed for Slc25A46b [DRSC02888]?
Kc cell number, rep 1: 1.56e6; Kc cell number, rep 2: 1.63e6; S2R+ cell number, rep 1: 1.26e6; S2R+ cell number, rep 2: 1.42e6

What is on record for CG7878 [DRSC16330]?
Kc cell number, rep 1: 1.74e6; Kc cell number, rep 2: 2.01e6; S2R+ cell number, rep 1: 1.17e6; S2R+ cell number, rep 2: 1.31e6

With CG11374 [DRSC00306], what was measured?
Kc cell number, rep 1: 1.75e6; Kc cell number, rep 2: 1.78e6; S2R+ cell number, rep 1: 1.17e6; S2R+ cell number, rep 2: 1.25e6

Look-ups from the entries so far.
Entry for Ppat-Dpck [DRSC09744] in “S2R+ cell number, rep 2”: 1.19e6
For “S2R+ cell number, rep 2”, Zdhhc8 (Zinc finger DHHC-type containing 8) [DRSC18044] shows 1.06e6
